Data taken from US20230272045A1.
Results are given in words; binding and its absence hold for the method and conditions named. Some binding calls cover weakened binding; strength is not graded here. For some assays here: Sequences can lack the tags named with a protein. Blank lines part the entries; values can stand above or below the binder they belong to.

Amino acid sequences for entries named in this document (tags omitted). A change or cut given only in a name is not applied to a line headed by its entry. Chains listed by the source or under a name are the forms on record and can include a tag or linker. Residues count along the entry.
UniProt P24821, residues 23-2201: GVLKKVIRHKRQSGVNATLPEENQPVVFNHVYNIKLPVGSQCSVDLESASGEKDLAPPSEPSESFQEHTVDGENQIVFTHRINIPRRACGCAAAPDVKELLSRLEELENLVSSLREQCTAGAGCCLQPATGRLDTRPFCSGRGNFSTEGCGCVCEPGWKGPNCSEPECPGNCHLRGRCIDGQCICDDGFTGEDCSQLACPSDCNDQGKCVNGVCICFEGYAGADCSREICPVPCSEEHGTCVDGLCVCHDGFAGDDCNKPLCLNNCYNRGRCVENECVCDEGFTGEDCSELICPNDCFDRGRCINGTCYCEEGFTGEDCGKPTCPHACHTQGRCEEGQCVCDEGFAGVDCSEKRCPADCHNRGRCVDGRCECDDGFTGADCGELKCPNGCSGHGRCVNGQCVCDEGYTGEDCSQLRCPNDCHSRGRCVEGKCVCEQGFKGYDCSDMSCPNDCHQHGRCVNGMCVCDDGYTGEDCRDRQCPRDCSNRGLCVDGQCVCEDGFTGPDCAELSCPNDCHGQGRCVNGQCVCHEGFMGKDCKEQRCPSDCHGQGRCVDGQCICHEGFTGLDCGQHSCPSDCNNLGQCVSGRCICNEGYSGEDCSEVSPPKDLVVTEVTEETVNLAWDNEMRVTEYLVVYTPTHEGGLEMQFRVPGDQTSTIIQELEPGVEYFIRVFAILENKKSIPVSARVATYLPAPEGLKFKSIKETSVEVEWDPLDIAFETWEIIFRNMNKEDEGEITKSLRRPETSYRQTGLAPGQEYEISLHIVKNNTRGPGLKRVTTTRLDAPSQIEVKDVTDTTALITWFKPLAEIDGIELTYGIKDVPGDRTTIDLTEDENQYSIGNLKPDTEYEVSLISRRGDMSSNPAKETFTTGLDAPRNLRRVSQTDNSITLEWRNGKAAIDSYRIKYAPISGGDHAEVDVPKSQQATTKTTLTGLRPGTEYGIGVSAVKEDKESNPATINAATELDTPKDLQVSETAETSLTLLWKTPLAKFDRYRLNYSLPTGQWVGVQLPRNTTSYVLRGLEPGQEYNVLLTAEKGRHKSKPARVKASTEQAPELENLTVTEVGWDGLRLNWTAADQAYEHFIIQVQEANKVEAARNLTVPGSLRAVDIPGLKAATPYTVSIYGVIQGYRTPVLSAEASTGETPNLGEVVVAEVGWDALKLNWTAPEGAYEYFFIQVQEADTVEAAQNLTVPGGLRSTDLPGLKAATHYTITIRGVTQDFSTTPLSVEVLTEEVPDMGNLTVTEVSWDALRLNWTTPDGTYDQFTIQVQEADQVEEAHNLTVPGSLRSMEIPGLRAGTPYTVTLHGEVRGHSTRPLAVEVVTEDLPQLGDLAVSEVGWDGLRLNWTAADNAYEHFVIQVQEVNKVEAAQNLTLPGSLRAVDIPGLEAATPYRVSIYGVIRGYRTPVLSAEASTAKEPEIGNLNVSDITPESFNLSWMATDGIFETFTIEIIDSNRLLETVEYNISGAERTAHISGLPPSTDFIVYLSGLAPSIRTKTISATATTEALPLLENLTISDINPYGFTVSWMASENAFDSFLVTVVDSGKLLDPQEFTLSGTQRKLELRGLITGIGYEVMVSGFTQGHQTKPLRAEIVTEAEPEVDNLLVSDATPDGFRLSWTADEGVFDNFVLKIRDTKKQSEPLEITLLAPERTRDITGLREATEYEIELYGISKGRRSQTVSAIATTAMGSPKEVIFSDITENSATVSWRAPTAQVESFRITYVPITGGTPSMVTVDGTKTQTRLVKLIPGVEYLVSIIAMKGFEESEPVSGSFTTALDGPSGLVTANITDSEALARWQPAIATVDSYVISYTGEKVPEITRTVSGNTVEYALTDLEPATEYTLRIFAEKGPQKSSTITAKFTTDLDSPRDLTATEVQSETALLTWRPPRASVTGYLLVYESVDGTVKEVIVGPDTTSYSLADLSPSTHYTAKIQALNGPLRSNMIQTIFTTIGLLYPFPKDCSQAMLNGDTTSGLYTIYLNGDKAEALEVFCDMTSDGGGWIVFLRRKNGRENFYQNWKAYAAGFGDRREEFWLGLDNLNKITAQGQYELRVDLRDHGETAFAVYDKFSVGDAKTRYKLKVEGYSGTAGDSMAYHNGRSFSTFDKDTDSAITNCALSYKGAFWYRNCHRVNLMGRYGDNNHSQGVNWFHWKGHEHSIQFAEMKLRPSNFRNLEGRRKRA
UniProt P02671: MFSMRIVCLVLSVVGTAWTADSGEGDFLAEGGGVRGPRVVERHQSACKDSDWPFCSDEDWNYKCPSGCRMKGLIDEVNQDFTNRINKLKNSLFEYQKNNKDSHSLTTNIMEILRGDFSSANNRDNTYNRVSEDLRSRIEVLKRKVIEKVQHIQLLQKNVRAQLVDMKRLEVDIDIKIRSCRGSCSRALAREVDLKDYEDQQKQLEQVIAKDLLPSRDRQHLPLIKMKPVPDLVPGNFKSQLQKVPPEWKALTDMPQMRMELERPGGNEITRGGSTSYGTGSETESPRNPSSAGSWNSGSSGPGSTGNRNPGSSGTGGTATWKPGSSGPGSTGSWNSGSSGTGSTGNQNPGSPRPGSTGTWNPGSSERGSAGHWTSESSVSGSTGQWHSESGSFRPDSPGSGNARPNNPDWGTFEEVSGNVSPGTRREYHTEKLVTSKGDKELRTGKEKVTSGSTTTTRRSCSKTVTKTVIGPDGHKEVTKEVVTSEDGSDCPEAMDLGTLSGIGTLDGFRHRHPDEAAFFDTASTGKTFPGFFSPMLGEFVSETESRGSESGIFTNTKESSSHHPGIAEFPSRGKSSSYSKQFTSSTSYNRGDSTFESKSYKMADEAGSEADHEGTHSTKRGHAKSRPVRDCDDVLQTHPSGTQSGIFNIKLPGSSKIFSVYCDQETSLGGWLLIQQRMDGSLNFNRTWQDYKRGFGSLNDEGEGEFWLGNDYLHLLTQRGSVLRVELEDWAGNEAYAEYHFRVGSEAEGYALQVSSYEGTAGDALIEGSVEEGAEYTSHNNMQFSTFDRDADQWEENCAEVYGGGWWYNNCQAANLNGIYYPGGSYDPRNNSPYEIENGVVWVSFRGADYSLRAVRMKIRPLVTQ
UniProt P02675: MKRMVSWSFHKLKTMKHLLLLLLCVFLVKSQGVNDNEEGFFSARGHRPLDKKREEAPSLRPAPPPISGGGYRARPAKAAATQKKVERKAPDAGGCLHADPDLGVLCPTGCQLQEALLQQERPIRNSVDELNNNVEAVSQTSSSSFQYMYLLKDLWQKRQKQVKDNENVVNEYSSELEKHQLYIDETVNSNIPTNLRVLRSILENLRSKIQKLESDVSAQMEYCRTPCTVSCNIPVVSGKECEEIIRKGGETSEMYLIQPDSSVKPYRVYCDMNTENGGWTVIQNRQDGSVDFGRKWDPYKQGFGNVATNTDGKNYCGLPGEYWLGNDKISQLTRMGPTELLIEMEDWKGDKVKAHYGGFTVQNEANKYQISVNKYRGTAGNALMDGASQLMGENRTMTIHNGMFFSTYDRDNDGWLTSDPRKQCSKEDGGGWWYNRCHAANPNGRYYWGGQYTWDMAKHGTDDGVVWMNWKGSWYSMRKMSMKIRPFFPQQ
human plasma fibronectin (P02751, form named): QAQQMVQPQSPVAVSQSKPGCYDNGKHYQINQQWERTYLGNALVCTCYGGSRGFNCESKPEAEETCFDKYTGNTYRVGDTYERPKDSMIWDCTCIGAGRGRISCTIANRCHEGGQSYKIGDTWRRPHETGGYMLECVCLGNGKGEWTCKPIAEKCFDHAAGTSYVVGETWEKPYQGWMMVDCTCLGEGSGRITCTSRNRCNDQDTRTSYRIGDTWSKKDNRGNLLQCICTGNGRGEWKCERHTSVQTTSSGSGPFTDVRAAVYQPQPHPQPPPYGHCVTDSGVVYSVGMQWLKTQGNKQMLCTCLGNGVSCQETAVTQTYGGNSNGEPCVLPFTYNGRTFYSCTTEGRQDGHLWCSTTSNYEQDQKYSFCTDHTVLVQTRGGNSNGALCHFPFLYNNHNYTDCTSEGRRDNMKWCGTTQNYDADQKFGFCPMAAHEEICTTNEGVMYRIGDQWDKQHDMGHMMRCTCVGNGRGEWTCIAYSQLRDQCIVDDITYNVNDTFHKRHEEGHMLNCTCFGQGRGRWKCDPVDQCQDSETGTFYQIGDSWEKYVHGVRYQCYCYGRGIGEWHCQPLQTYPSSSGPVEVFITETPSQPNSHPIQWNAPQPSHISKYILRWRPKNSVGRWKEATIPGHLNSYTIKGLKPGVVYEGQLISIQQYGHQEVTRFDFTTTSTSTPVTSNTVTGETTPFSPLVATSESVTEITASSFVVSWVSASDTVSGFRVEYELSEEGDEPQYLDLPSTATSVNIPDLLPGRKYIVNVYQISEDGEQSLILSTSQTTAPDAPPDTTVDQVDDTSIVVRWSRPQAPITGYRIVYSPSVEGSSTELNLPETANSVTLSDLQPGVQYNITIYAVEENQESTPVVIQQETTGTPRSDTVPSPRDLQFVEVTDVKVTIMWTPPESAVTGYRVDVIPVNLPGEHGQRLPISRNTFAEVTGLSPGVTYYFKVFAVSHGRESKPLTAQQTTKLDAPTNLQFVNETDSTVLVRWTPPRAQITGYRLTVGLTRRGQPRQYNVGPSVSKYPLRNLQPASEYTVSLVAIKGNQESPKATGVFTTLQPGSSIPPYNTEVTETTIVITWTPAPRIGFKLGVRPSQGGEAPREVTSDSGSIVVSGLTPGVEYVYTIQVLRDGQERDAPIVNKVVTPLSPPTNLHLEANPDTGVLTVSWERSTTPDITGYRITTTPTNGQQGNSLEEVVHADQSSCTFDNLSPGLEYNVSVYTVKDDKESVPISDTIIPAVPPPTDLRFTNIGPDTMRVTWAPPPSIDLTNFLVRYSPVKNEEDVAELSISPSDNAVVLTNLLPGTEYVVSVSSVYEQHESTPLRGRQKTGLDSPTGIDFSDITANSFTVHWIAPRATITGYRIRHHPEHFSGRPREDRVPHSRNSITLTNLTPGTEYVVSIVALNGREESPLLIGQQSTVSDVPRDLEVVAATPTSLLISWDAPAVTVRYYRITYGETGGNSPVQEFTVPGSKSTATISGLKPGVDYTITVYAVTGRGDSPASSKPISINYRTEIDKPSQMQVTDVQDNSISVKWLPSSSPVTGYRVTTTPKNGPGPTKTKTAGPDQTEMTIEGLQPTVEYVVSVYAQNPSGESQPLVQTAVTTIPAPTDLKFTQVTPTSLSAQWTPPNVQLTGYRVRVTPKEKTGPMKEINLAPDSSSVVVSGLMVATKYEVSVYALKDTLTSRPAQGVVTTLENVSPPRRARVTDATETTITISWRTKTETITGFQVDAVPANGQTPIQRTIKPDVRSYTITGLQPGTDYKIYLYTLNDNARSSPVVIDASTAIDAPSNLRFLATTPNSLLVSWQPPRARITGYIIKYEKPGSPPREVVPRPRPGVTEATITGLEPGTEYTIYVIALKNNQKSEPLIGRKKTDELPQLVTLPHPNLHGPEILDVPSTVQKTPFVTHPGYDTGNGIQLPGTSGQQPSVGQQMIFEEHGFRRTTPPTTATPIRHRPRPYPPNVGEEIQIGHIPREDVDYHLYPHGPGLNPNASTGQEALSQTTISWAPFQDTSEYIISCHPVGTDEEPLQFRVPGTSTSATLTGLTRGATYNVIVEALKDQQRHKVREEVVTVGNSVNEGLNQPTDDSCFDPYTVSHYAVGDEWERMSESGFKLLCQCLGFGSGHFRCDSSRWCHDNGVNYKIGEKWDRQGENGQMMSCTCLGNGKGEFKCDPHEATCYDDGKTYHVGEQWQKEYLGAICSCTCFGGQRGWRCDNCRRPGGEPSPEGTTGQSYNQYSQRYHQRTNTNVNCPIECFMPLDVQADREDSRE
UniProt P04004, residues 20-478: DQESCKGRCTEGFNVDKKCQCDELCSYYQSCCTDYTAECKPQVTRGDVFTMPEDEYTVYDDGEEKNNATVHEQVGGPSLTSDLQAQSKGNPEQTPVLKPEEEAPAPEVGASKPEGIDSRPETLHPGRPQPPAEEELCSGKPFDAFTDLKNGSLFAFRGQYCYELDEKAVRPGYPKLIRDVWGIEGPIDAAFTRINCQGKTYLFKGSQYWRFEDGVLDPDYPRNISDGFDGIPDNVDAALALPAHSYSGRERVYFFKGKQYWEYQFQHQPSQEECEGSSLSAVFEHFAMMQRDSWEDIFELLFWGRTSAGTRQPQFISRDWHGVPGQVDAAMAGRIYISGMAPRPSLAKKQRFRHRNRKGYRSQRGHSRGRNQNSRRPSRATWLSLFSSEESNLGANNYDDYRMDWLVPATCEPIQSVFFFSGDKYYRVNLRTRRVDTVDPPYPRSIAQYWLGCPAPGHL

Assays:
[1] = molecular target: human tenascin C (human) (UniProt P24821); assay: ELISA; GST-fused fragment at 100 nM on coated ECM protein, anti-GST detection
[2] = molecular target: human tenascin C (human) (UniProt P24821); assay: ELISA of fragments
[3] = molecular target: human tenascin C (human) (UniProt P24821); assay: ELISA of GST-fused fragments; compared with PIGF123-144
[4] = molecular target: human tenascin C (human) (UniProt P24821); assay: ELISA of FIG. 1(B); GST-fused fragment on coated ECM protein
[5] = molecular target: human tenascin C (human) (UniProt P24821); assay: ELISA
[6] = molecular target: human fibrinogen (human) (UniProt P02671+P02675+P02679); assay: ELISA
[7] = molecular target: human plasma fibronectin (human) (UniProt P02751); assay: ELISA
[8] = molecular target: human vitronectin (human) (UniProt P04004); assay: ELISA
[9] = molecular target: human tenascin C (human) (UniProt P24821); assay: ELISA on coated ECM protein

- binding [1]: binds
- binding [2]: binds
- binding [3]: binds
- binding [4]: binds
Binder: RRRPKGRGKRRREKQRPTD (peptide, not shown: a dimerising Fc or GST; small tags and cut ends) [GST-fused PIGF123-141 fragment]

- binding [5]: binds
- binding [6]: binds
- binding [7]: binds
- binding [8]: binds
B1: Placenta growth factor-2 (PIGF-2) (ligand)
chain: LPAVPPQQWALSAGNGSSEVEVVPFQEVWGRSYCRALERLVDVVSEYPSEVEHMFSPSCVSLLRCTGCCGDENLHCVPVETANVTMQLLKIRSGDRPSYVELTFSQHVRCECRPLREKMKPERRRPKGRGKRRREKQRPTDCHLCGDAVPRR

- binding [9]: binds
B2: IL-1Ra/PIGF123-141 (protein)
chain: MNHKVHHHHHHMRPSGKRPCKMQAFRIWDTNQKTFYLRNNQLIAGYLQGPNIKLEEKIDMVPIDLHSVFLGIHGGKLCLSCAKSGDDIKLQLEEVNITDLSKNKEEDKRFTFIRSEKGPTTSFESAACPGWFLCTTLEADRPVSLTNTPEEPLIVTKFYFQEDQRRRPKGRGKRRREKQRPTD

- binding [2]: binds
Binder: RRLRQRRRLRRE (peptide, not shown: a dimerising Fc or GST; small tags and cut ends) [NRTN146-157 fragment (GST-fused construct from pGEX6P-1)]

- binding [2]: binds
Binder: RKKKGGKNGKNRR (peptide, not shown: a dimerising Fc or GST; small tags and cut ends) [AREG126-138 fragment (GST-fused construct from pGEX6P-1)]
